Results reported in paper PMC3203094.
These are yes or no findings as the source states them, for the method shown. In cells and extracts the contact can be indirect. Some entries that bind do so weakly or less than the wild type. For some assays here: Where a sequence is shown, tags or fusion partners need not be part of it.

T1: BAS1-c-myc-YFP^N (rice (Oryza sativa)) (UniProt Q6ER94)
T1 sequence: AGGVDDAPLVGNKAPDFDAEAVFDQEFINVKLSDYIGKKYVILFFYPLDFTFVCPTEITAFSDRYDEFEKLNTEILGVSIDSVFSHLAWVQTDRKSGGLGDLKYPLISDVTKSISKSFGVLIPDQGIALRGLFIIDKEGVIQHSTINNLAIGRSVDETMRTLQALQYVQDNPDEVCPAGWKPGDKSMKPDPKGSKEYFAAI


What was measured:
[1] = target: bZIP63 (Arabidopsis) (UniProt B9DGI8); test: split reporter; BiFC: YFP^N and YFP^C fusions transiently co-expressed in rice green tissue protoplasts (PEG-mediated transfection, 10-15 ug total plasmid DNA, cultured 6-16 h at room temperature); YFP signal seen by confocal microscopy
[2] = target: T1, BAS1-c-myc-YFP^N (rice (Oryza sativa)); test: as above

Row | binding [1] | binding [2] | Binder
1 | binds |  | bZIP63 (protein, UniProt B9DGI8 1-314) MEKVFSDEEISGNHHWSVNGMTSLNRSASEWAFNRFIQESSAAADDGESTTACGVSVSSPPNVPVDSEEYRAFLKSKLNLACAAVAMKRGTFIKPQDTSGRSDNGGANESEQASLASSKATPMMSSAITSGSELSGDEEEADGETNMNPTNVKRVKRMLSNRESARRSRRRKQAHLSELETQVSQLRVENSKLMKGLTDVTQTFNDASVENRVLKANIETLRAKVKMAEETVKRLTGFNPMFHNMPQIVSTVSLPSETSNSPDTTSSQVTTPEIISSGNKGKALIGCKMNRTASMRRVESLEHLQKRIRSVGDQ
2 |  | binds | OsTRX m5-HA-YFP^C (protein, UniProt Q9ZP20 60-172) CSNVVDEVVVADEKNWDSMVLGSEAPVLVEFWAPWCGPCRMIAPVIDELAKEYVGKIKCCKVNTDDSPNIATNYGIRSIPTVLMFKNGEKKESVIGAVPKTTLATIIDKYVSS
